Laboratory results as given in patent US20220305129A1, “CONJUGATES OF HETEROAROMATIC NITROGEN-COMPRISING COMPOUNDS” (Ascendis Pharma A/S, priority 2019, published 2022).

Assay: In vitro release kinetics: cleavage rate of the reversible bond in aqueous buffer
Assay type: physicochemical
Details: pH 7.4, 37° C.
Experimental: The cleavage rate of the reversible bond from conjugates 6, 10 and 11 was monitored at pH 7.4 and 37° C. in aqueous buffer (pH 7.4 48 mM sodium phosphate, 20% acetonitrile). The disappearance of the conjugate was determined by LCMS (UV detection) and fitted with curve fitting software to obtain the half-life of the release.

Compound | Released product
CCOC(c1ccccc1)n1cnc2ccccc21 (stereo not drawn) [Compound 6] | 1H-benzo[d]imidazole
CCOC(c1ccc(CC(=O)O)cc1)n1cnc2ccccc21 (stereo not drawn) [Compound 10] | 1H-benzo[d]imidazole
CCOC(c1ccccc1)n1ncc2ccccc21 (stereo not drawn) [Compound 11] | indazole
